Data as given in US20180273636A1.
These are yes or no findings as the source states them, for the method shown. Some results given as binding are weak or reduced against the parent protein; the word gives no strength.

What was measured:
[1] = biological target: Her2 (from Acrobiosystems) (UniProt P04626); test: SPR on immobilised Her2 pre-loaded with Trastuzumab (competitor)
[2] = biological target: Her2 (from Acrobiosystems) (UniProt P04626); test: SPR, immobilised Her2 with and without Trastuzumab (competitor)
[3] = biological target: Her2 (from Acrobiosystems) (UniProt P04626); test: SPR competition analysis on immobilised Her2

Measured: binding

B1: Affilin-143692 (designed binder)
chain: MQIFVKTLTAGNPSHMHHGKTITLEVEPSDTIENVKAKIQDKEGIPPDQQRLIWAGKQLEDGRTLSDYNIDDMHWLILLLNLRAA
binds: all assays above
